Test results taken from article PMC9769108, “Tuning dynamic DNA- and peptide-driven self-assembly in DNA–peptide conjugates†” (Chemical Science, 2022).
No constants are given. Whether binding was seen depends on the method and setting. Some results given as binding are weak or reduced against the parent protein; the word gives no strength.

Target: ILVAGK, β-turn-forming hexapeptide (parent peptide)
Test: dynamic light scattering + atomic force microscopy; 1% SDS aqueous solution, chosen to arrest peptide self-assembly; aged 0 to 28 days; 10 μM; both purified

binding: binds weakly
Binder: ILVAGK [ILVAGK, β-turn-forming hexapeptide (parent peptide)]
